Reference: the supplement of paper PMC12889115
The other results are listed elsewhere or left out. Values are raw readings; no control value is given beside them.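 In the initial screen, polymyxin B was used at a concentration that permeabilizes Salmonella's outer membrane but not its inner membrane. Maximum growth was set by DMSO wells with or without polymyxin B. Since plates varied, data were ranked per plate, and compounds giving the lowest OD600 advanced as hits.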

Tested on: Salmonella enterica serovar Typhimurium SL1344
Assay: bacterial growth OD600 after 18 h with compound and polymyxin B; higher = more bacterial growth (less inhibition)
Conditions: 50 µM, Mueller-Hinton broth

| SMILES | bacterial growth OD600 (polymyxin B 0.75 µg/mL) | bacterial growth OD600 (polymyxin B 1 µg/mL) |
| --- | --- | --- |
| COCC(=O)Nc1cc(C(=O)N2CCCC(c3ccccc3C)C2)cc2nc(-c3cccnc3)n(C)c12 (stereo not given) | 0.763 |  |
| CCCn1c(C)c(CC(=O)NCCc2nccs2)c2c1CC(C)(C)CC2=O | 0.985 |  |
| O=C(CCn1cnc2ccccc21)N1CCCC(CNS(=O)(=O)c2cccs2)C1 (stereo not given) |  | 0.786 |
| CN(CC1CCOCC1)C(=O)c1cc(COc2ccc(-n3cncn3)cc2)on1 |  | 0.882 |
| Cc1ccc(OCCN(C)C(=O)C2CC23CCN(Cc2ccc(F)cc2F)CC3)cc1 (stereo not given) | 0.789 |  |
| O=C(NCCC(c1ccccc1)c1ccccc1)C1CC12CCN(C(=O)c1ccc[n+]([O-])c1)CC2 (stereo not given) | 0.737 |  |
| c1cncc(-c2ncc3c(n2)CCCC3NCC2CCCCC2)c1 (stereo not given) | 0.786 |  |
| CS(=O)(=O)N1CCCC1C(=O)Nc1ccc(-c2cccc(F)c2)cc1 (stereo not given) | 0.569 |  |
| O=C(NCc1ccccc1)c1cccc(OC2CCN(Cc3ccon3)CC2)c1 |  | 0.958 |
| CCN(CCO)C(=O)CC1(c2ccccc2)CC(=O)N(Cc2ccc3c(c2)OCO3)C1=O (stereo not given) | 0.741 |  |
| COc1cc(-c2nc(CN3CCN(C)C(=O)[C@@H]3C)c(C)o2)ccc1F |  | 0.869 |
| Cc1cn2c(C(=O)N3CCCC(CNS(=O)(=O)Cc4ccccc4)C3)csc2n1 (stereo not given) | 0.757 |  |
| O=C(c1ccco1)N1CCCC(N2CCN(Cc3ccc4c(c3)OCO4)CC2)C1 (stereo not given) |  | 0.862 |
| CC1(C)[C@H]2CC=C(CCNC3CCN(c4ccc(C(=O)N[C@H]5CCCCNC5=O)cc4)CC3)[C@@H]1C2 | 0.76 |  |
| CC(C)(C)CN1CCC(C2CCN(Cc3nccs3)CC2)C1 (stereo not given) | 0.754 |  |
| COc1ccc(OC)c(CN2CCN(Cc3ccccc3F)C(CCO)C2)c1 (stereo not given) |  | 0.932 |
| COC(=O)C1CCCCN1C(=O)CC1(c2cccc(C(F)(F)F)c2)CC(=O)N(C2CC2)C1=O (stereo not given) | 0.805 |  |
| CNc1ccc(C(=O)N2CCCC(Cn3ccnc3)C2)cn1 (stereo not given) | 0.986 |  |
| Cc1noc(-c2ccc(NCCN3CCCCC3=O)nc2)n1 |  | 1.28 |
| Cc1cc(C)cc(C(=O)NC2CC(=O)N(Cc3ccc(F)cc3)C2)c1 (stereo not given) |  | 0.876 |

Complete entries as entered above:
CCN(CCO)C(=O)CC1(c2ccccc2)CC(=O)N(Cc2ccc3c(c2)OCO3)C1=O (stereo not given) as listed: bacterial growth OD600 (polymyxin B 0.75 µg/mL): 0.741
COC(=O)C1CCCCN1C(=O)CC1(c2cccc(C(F)(F)F)c2)CC(=O)N(C2CC2)C1=O (stereo not given) as listed: bacterial growth OD600 (polymyxin B 0.75 µg/mL): 0.805
